From a melanoma drug combination screen (doi:10.1371/journal.pone.0140310); values rounded.

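The test systems are human melanoma cell lines, treated with a pair of drugs for 72 h and then stained and imaged. Values are the number of DAPI-stained nuclei as a percentage of the DMSO control: 100 is no effect, lower means fewer cells. Concentrations were fixed for each drug; these are the lower of two levels, a fifth of the higher. No replicate spread is given; individual values may be noisy.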 This is part of the screen, not chosen by result. A dash means that no value is listed here.

Drug key:
nilotinib (0.2 µM): Cc1cn(-c2cc(NC(=O)c3ccc(C)c(Nc4nccc(-c5cccnc5)n4)c3)cc(C(F)(F)F)c2)cn1
erlotinib (0.8 µM): C#Cc1cccc(Nc2ncnc3cc(OCCOC)c(OCCOC)cc23)c1
gemcitabine (0.0004 µM): Nc1ccn([C@@H]2O[C@H](CO)[C@@H](O)C2(F)F)c(=O)n1
TCS401 (1.67 µM): O=C(O)C(=O)Nc1sc2c(c1C(=O)O)CCNC2
etoposide (0.02 µM): COc1cc([C@@H]2c3cc4c(cc3[C@@H](O[C@@H]3O[C@@H]5CO[C@@H](C)O[C@H]5[C@H](O)[C@H]3O)[C@H]3COC(=O)[C@H]23)OCO4)cc(OC)c1O

Cell line	gemcitabine + TCS401	erlotinib + TCS401	nilotinib + gemcitabine	etoposide + erlotinib	nilotinib + TCS401	TCS401 + etoposide
501mel	96.2	84.4	-	-	120	99.2
COLO 800	67.0	89.2	63.7	104	120	79.2
G-361	90.9	88.2	90.3	94.9	102	76.7
IPC-298	88.1	88.2	94.0	83.7	102	93.2
LOX IMVI	99.2	127	110	124	115	76.7
IST-MEL1	74.3	97.1	90.4	101	99.0	106
A101D	91.3	84.6	97.9	102	102	90.7
COLO 829	80.2	76.0	110	87.6	109	68.0
C32	97.2	108	97.6	108	90.2	103
COLO 792	105	78.1	92.9	82.6	108	102
A375	-	81.7	86.1	88.2	-	-
A2058	92.6	102	87.3	83.5	97.8	97.4
LB2518-MEL	86.8	103	102	83.8	103	98.9
MEL-HO	93.8	94.8	94.6	95.8	80.2	104